Measured values taken from doi:10.1101/2024.11.26.625561.
No constants are given. Whether binding was seen depends on the method and setting. Binding seen in cells or lysates may run through a third protein. Some entries that bind do so weakly or less than the wild type.

The chains behind the UniProt entries cited, without tags or fusion partners.
UniProt P41233: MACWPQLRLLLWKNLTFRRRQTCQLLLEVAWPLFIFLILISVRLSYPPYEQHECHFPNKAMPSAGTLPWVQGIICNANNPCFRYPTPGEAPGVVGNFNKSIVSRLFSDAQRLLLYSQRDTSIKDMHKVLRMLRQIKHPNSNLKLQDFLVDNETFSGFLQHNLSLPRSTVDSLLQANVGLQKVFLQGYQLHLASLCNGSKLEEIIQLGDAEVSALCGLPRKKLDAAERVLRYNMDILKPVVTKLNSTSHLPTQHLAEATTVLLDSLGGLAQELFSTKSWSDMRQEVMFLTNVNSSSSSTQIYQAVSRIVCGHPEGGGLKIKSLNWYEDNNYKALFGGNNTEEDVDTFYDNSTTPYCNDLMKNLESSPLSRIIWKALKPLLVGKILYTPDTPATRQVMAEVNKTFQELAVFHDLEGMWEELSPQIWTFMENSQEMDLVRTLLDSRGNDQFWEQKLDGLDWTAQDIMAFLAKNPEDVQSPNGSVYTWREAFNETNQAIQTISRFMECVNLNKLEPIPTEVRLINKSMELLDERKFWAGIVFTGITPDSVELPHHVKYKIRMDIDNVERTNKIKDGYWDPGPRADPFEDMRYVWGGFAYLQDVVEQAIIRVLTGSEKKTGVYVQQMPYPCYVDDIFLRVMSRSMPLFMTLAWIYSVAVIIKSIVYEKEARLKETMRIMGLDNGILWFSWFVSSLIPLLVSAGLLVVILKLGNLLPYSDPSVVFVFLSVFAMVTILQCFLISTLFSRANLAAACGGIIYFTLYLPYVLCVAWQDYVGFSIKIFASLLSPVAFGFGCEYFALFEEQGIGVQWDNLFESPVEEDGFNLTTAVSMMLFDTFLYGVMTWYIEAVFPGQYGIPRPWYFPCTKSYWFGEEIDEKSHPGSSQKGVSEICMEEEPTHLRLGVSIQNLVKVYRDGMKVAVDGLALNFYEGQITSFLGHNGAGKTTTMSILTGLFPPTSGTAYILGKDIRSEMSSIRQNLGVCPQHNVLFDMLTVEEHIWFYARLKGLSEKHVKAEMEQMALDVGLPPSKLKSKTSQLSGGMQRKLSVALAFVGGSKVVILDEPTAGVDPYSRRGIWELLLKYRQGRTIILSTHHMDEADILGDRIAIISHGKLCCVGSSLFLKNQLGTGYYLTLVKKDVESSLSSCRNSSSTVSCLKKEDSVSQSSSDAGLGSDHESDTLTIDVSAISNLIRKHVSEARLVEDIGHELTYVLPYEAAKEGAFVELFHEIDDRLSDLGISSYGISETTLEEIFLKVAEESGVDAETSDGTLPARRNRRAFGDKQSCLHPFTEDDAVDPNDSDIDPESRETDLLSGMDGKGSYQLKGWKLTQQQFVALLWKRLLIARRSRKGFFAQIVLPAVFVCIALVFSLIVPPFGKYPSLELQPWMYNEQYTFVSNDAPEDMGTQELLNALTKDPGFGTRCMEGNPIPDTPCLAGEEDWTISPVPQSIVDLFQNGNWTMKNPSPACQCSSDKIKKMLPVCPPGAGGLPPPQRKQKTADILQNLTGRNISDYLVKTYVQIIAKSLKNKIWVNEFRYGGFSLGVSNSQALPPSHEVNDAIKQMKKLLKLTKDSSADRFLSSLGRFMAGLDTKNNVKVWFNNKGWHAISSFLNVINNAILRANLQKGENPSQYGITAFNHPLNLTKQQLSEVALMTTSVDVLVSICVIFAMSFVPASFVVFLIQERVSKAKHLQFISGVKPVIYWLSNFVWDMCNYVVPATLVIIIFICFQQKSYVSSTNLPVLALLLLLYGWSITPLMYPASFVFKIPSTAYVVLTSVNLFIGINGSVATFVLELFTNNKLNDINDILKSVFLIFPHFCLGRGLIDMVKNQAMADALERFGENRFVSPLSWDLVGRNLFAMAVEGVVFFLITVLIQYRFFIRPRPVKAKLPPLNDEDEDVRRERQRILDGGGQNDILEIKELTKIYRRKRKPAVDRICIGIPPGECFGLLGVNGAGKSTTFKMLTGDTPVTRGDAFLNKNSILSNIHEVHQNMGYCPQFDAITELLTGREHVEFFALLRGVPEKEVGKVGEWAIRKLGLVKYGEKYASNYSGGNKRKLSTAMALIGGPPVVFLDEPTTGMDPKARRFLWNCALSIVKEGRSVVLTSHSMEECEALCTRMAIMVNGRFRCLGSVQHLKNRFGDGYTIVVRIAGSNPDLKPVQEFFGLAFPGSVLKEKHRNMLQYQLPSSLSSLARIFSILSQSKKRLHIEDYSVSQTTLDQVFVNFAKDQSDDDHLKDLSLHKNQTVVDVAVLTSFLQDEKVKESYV

T1: CEACAM1 (UniProt P31809)
T1 sequence: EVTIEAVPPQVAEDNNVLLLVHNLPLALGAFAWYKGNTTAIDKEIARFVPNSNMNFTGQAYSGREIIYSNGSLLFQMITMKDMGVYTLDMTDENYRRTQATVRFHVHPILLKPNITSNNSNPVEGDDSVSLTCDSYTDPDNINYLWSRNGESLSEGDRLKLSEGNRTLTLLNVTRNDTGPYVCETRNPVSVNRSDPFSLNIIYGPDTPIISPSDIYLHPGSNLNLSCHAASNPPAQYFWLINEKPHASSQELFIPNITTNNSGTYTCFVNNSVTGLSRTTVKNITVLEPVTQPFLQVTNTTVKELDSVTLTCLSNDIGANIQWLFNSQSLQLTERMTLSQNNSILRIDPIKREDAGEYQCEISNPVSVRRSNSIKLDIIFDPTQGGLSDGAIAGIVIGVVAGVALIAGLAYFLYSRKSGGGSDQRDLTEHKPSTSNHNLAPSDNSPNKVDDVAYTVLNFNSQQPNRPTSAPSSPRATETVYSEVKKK


Target: T1, CEACAM1
Test: co-IP

| Molecule | binding |
| --- | --- |
| ABCA1 (from UniProt P41233 1-2261) | binds |
| Pygm (protein, UniProt Q9WUB3 1-842) MSRPLSDQDKRKQISVRGLAGVENVSELKKNFNRHLHFTLVKDRNVATPRDYYFALAHTVRDHLVGRWIRTQQHYYEKDPKRIYYLSLEFYMGRTLQNTMVNLALENACDEATYQLGLDMEELEEIEEDAGLGNGGLGRLAACFLDSMATLGLAAYGYGIRYEFGIFNQKICGGWQMEEADDWLRYGNPWEKARPEFTLPVHFYGRVEHTSQGAKWVDTQVVLAMPYDTPVPGYRNNVVNTMRLWSAKAPNDFNLKDFNVGGYIQAVLDRNLAENISRVLYPNDNFFEGKELRLKQEYFVVAATLQDIIRRFKSSKFGSRDPVRTNFDAFPDKVAIQLNDTHPSLAIPELMRILVDLERLDWDKAWDVTVKTCAYTNHTVLPEALERWPVHLMETLLPRHLQIIYEINQRFLNRVAAAFPGDVDRLRRMSLVEEGAVKRINMAHLCIAGSHAVNGVARIHSEILKKTIFKDFYELEPHKFQNKTNGITPRRWLVLCNPGLAEVIAERIGEDYISDLDQLRKLLSYVDDEAFIRDVAKVKQENKLKFSAYLEREYKVHINPNSLFDVQVKRIHEYKRQLLNCLHIITLYNRIKREPNRFMVPRTIMIGGKAAPGYHMAKMIIKLITAIGDVVNHDPAVGDRLRVIFLENYRVSLAEKVIPAADLSEQISTAGTEASGTGNMKFMLNGALTIGTMDGANVEMAEEAGEENFFIFGMRVEDVERLDQRGYNAQEYYDRIPELRQIIEQLSSGFFSPKQPDLFKDIVNMLMHHDRFKVFADYEEYIKCQDKVSELYKNPREWTRMVIRNIATSGKFSSDRTIAQYAREIWGVEPSRQRLPAPDEKI | no binding |
